{"source": "patent US20240002435A1", "about": "“SYNTHETIC PEPTIDE AND APPLICATION THEREOF” (Wuhan Innerse Pharmaceutical Inc., priority 2021, published 2024)", "key": {"[1]": {"tested_on": "suture-embolized MCAO model, rat cerebral ischemic stroke", "assay": "Dose-effect experiment, suture-embolized MCAO ischemia-reperfusion, TTC infarct size and inhibition rate (Example 10)", "type": "in vivo, Sprague-Dawley (SD) rats", "conditions": "for Infarct weight: 24 h after treatment; for Infarct weight / Infarct size: mean ± SD; for Infarct size: TTC 24 h after treatment, infarct weight / whole brain weight; for Inhibition rate of cerebral infarction: calculated from infarct size vs model control group"}, "[2]": {"tested_on": "suture-embolized MCAO model, rat cerebral ischemic stroke", "assay": "Dose-effect experiment, rat neurological function score NSS (Example 10)", "type": "in vivo, Sprague-Dawley (SD) rats", "conditions": "mean ± SD; for NSS score D 0: D 0 = 1 day before surgery (baseline); for NSS score D 2: D 2 = 1 day after surgery", "protocol": "Measurement time: 24 hours before and after modeling;\nMeasurement method: a motor function test, sensory test, balance test, and reflex and abnormal behavior test were performed on animals, according to the rat neurological function score scale (NS S) for details."}, "[3]": {"tested_on": "rat model of cerebral ischemia (middle cerebral artery occlusion, MCAO)", "assay": "MCAO rat cerebral ischemia model, blinded behavioral scoring 0-5 points (Example 9)", "type": "in vivo, SD rats", "conditions": "3 mg/kg tail vein; for Behavioral score, mean value / Behavioral score: 22-24 h after suturation, scale 0-5 points; for Behavioral score, mean value: mean of 6 rats", "protocol": "(§1) In order to determine the application of the synthetic peptides provided by the present invention in neurological diseases, the present invention uses SD rats as experimental objects, and performs middle cerebral artery occlusion method (MCAO) to prepare rat model of cerebral ischemia. These rats were injected drugs intravenously 1-2 hours after ischemia, and a behavioral observation and scoring was conducted for each animal after 22-24 hours. After the behavioral observation, the experimental rats were euthanized and their brains were removed, cut to sections and stained with TTC for quantitative analysis, and the cerebral infarct volume % was calculated.\n(§2) The experimental SD rat was weighed and anesthetized with chloral hydrate. After anesthesia, the limbs of the rat were fixed, and the rat was placed in a supine position, connected to the small-animal monitor, and monitored for important physiological parameters such as body temperature, blood pressure and heart rate, etc. The rat's neck was shaved and disinfected with 75% alcohol cotton ball. A middle incision of about 2 cm length was then made on the neck of the experimental rat, and the submandibular gland of the rat was bluntly separated while avoiding damage to the gland. Then, the left common carotid artery (CCA) of the experimental rat was bluntly separated, and the internal carotid artery (ICA) and external carotid artery (ECA) were carefully separated upward along the CCA. Any damage to vagus nerves was avoided during the separation. The CCA and ICA were clamped respectively with two artery clamps, and the distal end of the ECA was cut off and a silicone suture emboli was inserted into the ECA “port” to the ICA artery clamp, then the artery clamp was quickly loosened and the tip of the suture emboli was put in through the artery clamp quickly before clamping the ICA again. This step was repeated and the suture emboli was put in further until the black mark of the suture emboli reached the bifurcation of the ECA and ICA, and the tip of the suture emboli blocked the middle cerebral artery and then the ECA “port” and the suture emboli was tied tightly using a thread in order to prevent the “escape” of suture emboli or bleeding after the rat waked up. The artery clamps on the CCA and ICA were then loosed and removed to restore the tissue to its original position, and an appropriate amount of penicillin was applied to prevent wound infection. A medical suture needle with thread was used to suture, and the wound was disinfected using povidone-iodine again after the suturation. The experimental rats were monitored with the small-animal monitor to evaluate if their physiological parameters were normal, and the rats were placed on a small-animal electric blanket to keep their body temperature until they waked up, and placed in animal cages.\n(§3) The drug to be tested was prepared as 3 mg/mL solution. The drug was dosed via tail vein 1-2 h after the suturation.\n(§4) During the drug administration, the rat was fastened with a fastening device, and the drug to be tested was injected into the tail vein of the rat at 3 mg/kg using 1 mL syringe, the drug was injected slowly to reduce the cardiopulmonary load of the experimental rat.\n(§5) The animals were divided into different test groups, with 6 rats for each group.\n(§6) Drug groups S1 (NA1), S8 (beta-Ala-His-Gly) and S9 (Gly-beta-Ala-His): administered via tail vein after the suturation;\nThe behavioral observation and scoring were performed on each animal 22-24 h after the suturation."}, "[4]": {"tested_on": "rat model of cerebral ischemia (middle cerebral artery occlusion, MCAO)", "assay": "MCAO rat cerebral ischemia model, TTC staining, cerebral infarct volume (Example 9)", "type": "in vivo, SD rats", "protocol": "as §1, §2, §3, §4, §5, §6\nAfter behavioral observations, experimental rats were euthanized and their brains were removed. The brain tissue was transversely cut into 6 slices with a 2 mm thickness, then transferred to TTC staining solution, incubated in a 37° C. incubator without light for 10 min, and taken pictures. The TTC-stained brain tissue and the remaining non-stained brain tissue were stored at −20° C.\nQuantitative analysis of photos after TTC staining was performed using Image J software. […]"}, "[5]": {"tested_on": "suture-embolized MCAO model, rat cerebral ischemic stroke", "assay": "Dose-effect experiment, Bederson score (Example 10)", "type": "in vivo, Sprague-Dawley (SD) rats", "conditions": "1 hour after ischemia, i.e. before dosing (model check), mean ± SD", "protocol": "Measurement time: 1 hour after ischemia on the day of modeling;\nAnimals measured: all the animals survived in surgery;\nMeasurement method: the Bederson scoring standard was used to score animals."}, "[6]": {"conditions": "0.6 mg/kg i.v. once within 10 min after reperfusion"}, "[7]": {"conditions": "3 mg/kg i.v. once within 10 min after reperfusion"}, "[8]": {"conditions": "15 mg/kg i.v. once within 10 min after reperfusion"}}, "note": "Values joined by “and” are separate entries in the source; they are usually repeats but may differ in a detail not shown here. Equal entries are not always repeated. Part of at least one peptide drawing is inferred or uncertain, most often the ends. Where a SMILES comes first, the peptide text is derived from it. [ ]: non-standard residue; d: D form. βAla = NCCC(=O)O", "data": [{"smiles": "NCCC(=O)N[C@@H](Cc1c[nH]cn1)C(=O)NCC(=O)O", "note": "[S8, beta-Ala-His-Gly] (H-[βAla]-His-Gly-OH)", "values": [{"measurement": "Infarct weight", "setting": "[1]; [6]", "value": "0.28 ± 0.06", "unit": "g"}, {"measurement": "Infarct size", "setting": "[1]; [6]", "value": "20.37±4.61", "unit": "%"}, {"measurement": "Inhibition rate of cerebral infarction", "setting": "[1]; 0.6 mg/kg i.v.", "value": 18, "unit": "%"}, {"measurement": "Infarct weight", "setting": "[1]; [7]", "value": "0.23 ± 0.06", "unit": "g"}, {"measurement": "Infarct size", "setting": "[1]; [7]", "value": "16.94±3.90", "unit": "%"}, {"measurement": "Inhibition rate of cerebral infarction", "setting": "[1]; 3 mg/kg i.v.", "value": 32, "unit": "%"}, {"measurement": "Infarct weight", "setting": "[1]; [8]", "value": "0.22 ± 0.04", "unit": "g"}, {"measurement": "Infarct size", "setting": "[1]; [8]", "value": "15.76±2.68", "unit": "%"}, {"measurement": "Inhibition rate of cerebral infarction", "setting": "[1]; 15 mg/kg i.v.", "value": 37, "unit": "%"}, {"measurement": "Dose at which significant therapeutic effect (reduced cerebral infarction size) starts", "setting": "[1]; i.v. once after reperfusion, doses tested 0.6, 3, 15 mg/kg", "value": 3, "unit": "mg/kg"}, {"measurement": "NSS score D 0", "setting": "[2]; 0.6 mg/kg group", "value": "0 ± 0"}, {"measurement": "NSS score D 2", "setting": "[2]; 0.6 mg/kg i.v.", "value": "8.36±1.61"}, {"measurement": "NSS score D 0", "setting": "[2]; 3 mg/kg group", "value": "0 ± 0"}, {"measurement": "NSS score D 0", "setting": "[2]; 15 mg/kg group", "value": "0 ± 0"}, {"measurement": "NSS score D 2", "setting": "[2]; 15 mg/kg i.v.", "value": "7.93±0.59"}, {"measurement": "Behavioral score, statistical comparison with S1 (NA1)", "setting": "[3]", "value": "not statistically different from S1"}, {"measurement": "Behavioral score, mean value", "setting": "[3]", "value": 2.2}, {"measurement": "Behavioral score, mean value", "setting": "[3]; listed as beta-Ala-His-Gly", "value": "2.2±0.8"}, {"measurement": "Behavioral score", "setting": "[3]; rat No. 1", "value": 3}, {"measurement": "Behavioral score", "setting": "[3]; rat No. 2", "value": 2}, {"measurement": "Behavioral score", "setting": "[3]; rat No. 3", "value": 1}, {"measurement": "Behavioral score", "setting": "[3]; rat No. 4", "value": 2}, {"measurement": "Behavioral score", "setting": "[3]; rat No. 5", "value": 2}, {"measurement": "Behavioral score", "setting": "[3]; rat No. 6", "value": 3}, {"measurement": "Infarct volume, statistical comparison with S1 (NA1)", "setting": "[4]; 3 mg/kg tail vein", "value": "not statistically different from S1"}, {"measurement": "Cerebral infarction volume (TTC quantification), mean value", "setting": "[4]; 3 mg/kg tail vein 1-2 h after suturation, read 22-24 h, mean of 6 rats", "value": "0.172±0.051 and 0.172"}, {"measurement": "Cerebral infarction volume (TTC quantification)", "setting": "[4]; 3 mg/kg tail vein 1-2 h after suturation, read 22-24 h, rat No. 1", "value": 0.236}, {"measurement": "Cerebral infarction volume (TTC quantification)", "setting": "[4]; 3 mg/kg tail vein 1-2 h after suturation, read 22-24 h, rat No. 2", "value": 0.172}, {"measurement": "Cerebral infarction volume (TTC quantification)", "setting": "[4]; 3 mg/kg tail vein 1-2 h after suturation, read 22-24 h, rat No. 3", "value": 0.086}, {"measurement": "Cerebral infarction volume (TTC quantification)", "setting": "[4]; 3 mg/kg tail vein 1-2 h after suturation, read 22-24 h, rat No. 4", "value": 0.197}, {"measurement": "Cerebral infarction volume (TTC quantification)", "setting": "[4]; 3 mg/kg tail vein 1-2 h after suturation, read 22-24 h, rat No. 5", "value": 0.150}, {"measurement": "Cerebral infarction volume (TTC quantification)", "setting": "[4]; 3 mg/kg tail vein 1-2 h after suturation, read 22-24 h, rat No. 6", "value": 0.191}, {"measurement": "Bederson", "setting": "[5]; 0.6 mg/kg group", "value": "3 ± 0"}, {"measurement": "Bederson", "setting": "[5]; 3 mg/kg group", "value": "3 ± 0"}, {"measurement": "Bederson", "setting": "[5]; 15 mg/kg group", "value": "3 ± 0"}]}]}
